Values from PubChem BioAssay AID1224830 (NIAID, 2016)
Assay: 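Regulators of TLR4 signalling towards TNF-alpha in macrophage-like cells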 (primary screen). System: human THP-1 monocytic leukaemia cells, TNF dual-luciferase reporter clone, PMA-differentiated to macrophage-like cells. Knock-down reagent: siRNA pool against human genes, 50 nM. Time to read-out: LPS for 4 h, given about 3 days after siRNA transfection. Treatment: bacterial LPS (TLR4 ligand), 10 ng/ml. Detection: 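Ratio of firefly to renilla light, scaled to the plate median and expressed as a robust z-score per replicate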. Direction: TNF reporter robust z-score: higher = stronger TNF reporter response to LPS. Active means: 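Each well counts as active if its z-score is over 2.8 or under -1.5; controls are left without a call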.
This is a random part of about 18,000 reagents tested. About 2,900 of them (16%) count as active. 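Calls are made per well; low scores hint the gene aids the LPS response, high scores that it dampens it.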 Reagents against one gene are numbered here. Repeated entries: four replicate wells of each siRNA pool.

Target gene,pool no.,TNF reporter robust z-score,call
TPTE2 (GeneID 93492),1,-0.27,inactive
TPTE2 (GeneID 93492),1,0.27,inactive
TPTE2 (GeneID 93492),1,-0.44,inactive
TPTE2 (GeneID 93492),1,1.29,inactive
FSTL3 (GeneID 10272),1,1.3,inactive
FSTL3 (GeneID 10272),1,-0.6,inactive
FSTL3 (GeneID 10272),1,-0.41,inactive
FSTL3 (GeneID 10272),1,0.36,inactive
UBALD1 (GeneID 124402),1,-1.98,active
UBALD1 (GeneID 124402),1,-1.5,inactive
UBALD1 (GeneID 124402),1,-1.59,active
UBALD1 (GeneID 124402),1,-1.24,inactive
P2RY2 (GeneID 5029),1,-0.41,inactive
P2RY2 (GeneID 5029),1,-0.6,inactive
P2RY2 (GeneID 5029),1,-0.34,inactive
P2RY2 (GeneID 5029),1,0.87,inactive
ANP32E (GeneID 81611),1,0.9,inactive
ANP32E (GeneID 81611),1,-0.3,inactive
ANP32E (GeneID 81611),1,-0.11,inactive
ANP32E (GeneID 81611),1,0.04,inactive
HYI (GeneID 81888),1,-0.31,inactive
HYI (GeneID 81888),1,0.07,inactive
HYI (GeneID 81888),1,-0.28,inactive
HYI (GeneID 81888),1,-0.18,inactive
PHETA2 (GeneID 150368),1,-0.67,inactive
PHETA2 (GeneID 150368),1,0.15,inactive
PHETA2 (GeneID 150368),1,-0.35,inactive
PHETA2 (GeneID 150368),1,-0.47,inactive
MAPK6 (GeneID 5597),1,0,inactive
MAPK6 (GeneID 5597),1,-0.59,inactive
MAPK6 (GeneID 5597),1,-0.72,inactive
MAPK6 (GeneID 5597),1,0.79,inactive
PTPRG (GeneID 5793),1,-0.95,inactive
PTPRG (GeneID 5793),1,0.06,inactive
PTPRG (GeneID 5793),1,2.17,inactive
PTPRG (GeneID 5793),1,0.23,inactive
ZC2HC1A (GeneID 51101),1,1.86,inactive
ZC2HC1A (GeneID 51101),1,1.04,inactive
ZC2HC1A (GeneID 51101),1,-1.28,inactive
ZC2HC1A (GeneID 51101),1,-0.4,inactive
FBXO22 (GeneID 26263),1,-1.4,inactive
FBXO22 (GeneID 26263),1,2.73,inactive
FBXO22 (GeneID 26263),1,-2.01,active
FBXO22 (GeneID 26263),1,-0.08,inactive
INO80 (GeneID 54617),1,-1.16,inactive
INO80 (GeneID 54617),1,-0.94,inactive
INO80 (GeneID 54617),1,-0.17,inactive
INO80 (GeneID 54617),1,-1.18,inactive
PSG4 (GeneID 5672),1,1.88,inactive
PSG4 (GeneID 5672),1,0.84,inactive
PSG4 (GeneID 5672),1,-0.33,inactive
PSG4 (GeneID 5672),1,-0.13,inactive
PLCZ1 (GeneID 89869),1,0.46,inactive
PLCZ1 (GeneID 89869),1,0.74,inactive
PLCZ1 (GeneID 89869),1,-0.19,inactive
PLCZ1 (GeneID 89869),1,-0.61,inactive
SUMO4 (GeneID 387082),1,3.29,active
SUMO4 (GeneID 387082),1,3.25,active
SUMO4 (GeneID 387082),1,-0.74,inactive
SUMO4 (GeneID 387082),1,0.65,inactive
RCL1 (GeneID 10171),1,0.38,inactive
RCL1 (GeneID 10171),1,0.18,inactive
RCL1 (GeneID 10171),1,-0.22,inactive
ATP5PB (GeneID 515),1,-0.56,inactive
ATP5PB (GeneID 515),1,1.45,inactive
ATP5PB (GeneID 515),1,-0.64,inactive
ATP5PB (GeneID 515),1,-0.05,inactive
OR4P4 (GeneID 81300),1,-0.79,inactive
OR4P4 (GeneID 81300),1,-0.98,inactive
OR4P4 (GeneID 81300),1,-1.34,inactive
OR4P4 (GeneID 81300),1,0.2,inactive
NAP1L2 (GeneID 4674),1,-1.05,inactive
NAP1L2 (GeneID 4674),1,0.1,inactive
NAP1L2 (GeneID 4674),1,-0.49,inactive
NAP1L2 (GeneID 4674),1,-0.32,inactive
UGT2B7 (GeneID 7364),1,0.2,inactive
UGT2B7 (GeneID 7364),1,0.32,inactive
UGT2B7 (GeneID 7364),1,-0.9,inactive
UGT2B7 (GeneID 7364),1,-0.3,inactive
FOXP2 (GeneID 93986),1,-0.4,inactive
FOXP2 (GeneID 93986),1,0.37,inactive
FOXP2 (GeneID 93986),1,-0.51,inactive
FOXP2 (GeneID 93986),1,0.7,inactive
PRSS22 (GeneID 64063),1,-0.28,inactive
PRSS22 (GeneID 64063),1,-0.26,inactive
PRSS22 (GeneID 64063),1,-1.02,inactive
PRSS22 (GeneID 64063),1,3.98,active
CFAP300 (GeneID 85016),1,-1.16,inactive
CFAP300 (GeneID 85016),1,-1.22,inactive
CFAP300 (GeneID 85016),1,-0.53,inactive
CFAP300 (GeneID 85016),1,-0.71,inactive
CFAP46 (GeneID 54777),1,-1.33,inactive
CFAP46 (GeneID 54777),1,-1.42,inactive
CFAP46 (GeneID 54777),1,-1.14,inactive
CFAP46 (GeneID 54777),1,-0.99,inactive
CFAP46 (GeneID 54777),2,0.49,inactive
CFAP46 (GeneID 54777),2,-0.7,inactive
CFAP46 (GeneID 54777),2,0.01,inactive
CFAP46 (GeneID 54777),2,0.51,inactive
SNX6 (GeneID 58533),1,,inactive
SNX6 (GeneID 58533),1,0.13,inactive
SNX6 (GeneID 58533),1,-0.46,inactive
SNX6 (GeneID 58533),1,-0.49,inactive
SNX6 (GeneID 58533),1,-0.31,inactive
LOC652759 (retired record) (GeneID 652759),1,-1.22,inactive
LOC652759 (retired record) (GeneID 652759),1,0.08,inactive
LOC652759 (retired record) (GeneID 652759),1,0.87,inactive
LOC652759 (retired record) (GeneID 652759),1,2.72,inactive
KLHL34 (GeneID 257240),1,-0.14,inactive
KLHL34 (GeneID 257240),1,-0.48,inactive
KLHL34 (GeneID 257240),1,-0.9,inactive
KLHL34 (GeneID 257240),1,-1.36,inactive

Laid out differently: 15 of the entries above
| Target gene | pool no. | TNF reporter robust z-score | call |
| --- | --- | --- | --- |
| ATP5PB (GeneID 515) | 1 | 1.45 | inactive |
| ATP5PB (GeneID 515) | 1 | -0.64 | inactive |
| ATP5PB (GeneID 515) | 1 | -0.05 | inactive |
| OR4P4 (GeneID 81300) | 1 | -0.79 | inactive |
| OR4P4 (GeneID 81300) | 1 | -0.98 | inactive |
| OR4P4 (GeneID 81300) | 1 | -1.34 | inactive |
| OR4P4 (GeneID 81300) | 1 | 0.2 | inactive |
| NAP1L2 (GeneID 4674) | 1 | -1.05 | inactive |
| NAP1L2 (GeneID 4674) | 1 | 0.1 | inactive |
| NAP1L2 (GeneID 4674) | 1 | -0.49 | inactive |
| NAP1L2 (GeneID 4674) | 1 | -0.32 | inactive |
| UGT2B7 (GeneID 7364) | 1 | 0.2 | inactive |
| UGT2B7 (GeneID 7364) | 1 | 0.32 | inactive |
| UGT2B7 (GeneID 7364) | 1 | -0.9 | inactive |
| UGT2B7 (GeneID 7364) | 1 | -0.3 | inactive |
